Each structure is given as a SMILES string. Some of the results follow. These are raw signals, not scaled to a control.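 In the initial screen, polymyxin B was used at a concentration that permeabilizes Salmonella's outer membrane but not its inner membrane. Maximum growth was set by DMSO wells with or without polymyxin B. Since plates varied, data were ranked per plate, and compounds giving the lowest OD600 advanced as hits.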

The subject of this test is Salmonella enterica serovar Typhimurium SL1344. In words: bacterial growth OD600 after 18 h with compound and polymyxin B; higher = more bacterial growth (less inhibition). The following applies: 50 µM, Mueller-Hinton broth.

On to `COc1cc(Cl)c(CN2CCCC(CO)(Cc3ccc(F)cc3F)C2)cc1OC` (stereo unspecified), for which the “bacterial growth OD600” value (polymyxin B 1 µg/mL) was determined as 0.884.
Take `O=C(CCn1cncn1)N1CCCC(CCc2ccccc2)C1` (stereo unspecified): the “bacterial growth OD600” value (polymyxin B 0.75 µg/mL) is 0.81.
For `C[C@H](NC1CCN(c2ccc(C(=O)NCc3ccc4c(c3)OCO4)cc2)CC1)c1ccccc1`, the “bacterial growth OD600” value (polymyxin B 0.75 µg/mL) came to 0.763.
Turning to `COC1CCN(Cc2nc(Cc3ccccc3Cl)no2)CC1`, the “bacterial growth OD600” value (polymyxin B 1 µg/mL) is 1.19.
On the same count and under the same terms, the figure for `CCC(C)NC(=O)NCc1cccnc1N1CCN(c2ccccc2OC)CC1` (stereo unspecified) is 0.714.
The same measure, in the same setting: then `CC1CCN(Cc2nnnn2CC(=O)NCc2csc(-c3cccs3)n2)CC1`, with 0.679.
On the same count and under the same terms, the figure for `CCN(CC)CC(O)COc1cc(CNC2CCC2)ccc1OC` (stereo unspecified) is 1.12.
With `COc1ccc(OC)c(-c2cc(Cl)c3c(c2)CC(CNC(=O)Cc2cn4ccsc4n2)O3)c1` (stereo unspecified), the “bacterial growth OD600” value (polymyxin B 0.75 µg/mL) was 0.009.
For `O=C(CCC1CCN(C(=O)c2ccco2)CC1)Nc1ccc2c(c1)OCCO2`, under “polymyxin B 1 µg/mL”, the “bacterial growth OD600” value is 0.889.
Still for that read-out and setting: the figure for `Cc1c(CC(=O)N2CCSCC2)c2c(n1CC1CCCO1)CCCC2=O` (stereo unspecified) is 0.894.
`Cc1cccnc1CN(C)C(=O)c1ccc2nc(Cc3ccccc3F)oc2c1`: the “bacterial growth OD600” value (polymyxin B 0.75 µg/mL) turned out to be 0.719.
In the case of `COCCNC(=O)c1ccc(OC)cc1OC1CCN(C2CCC2)CC1`, the “bacterial growth OD600” value (polymyxin B 1 µg/mL) was 1.15.
`COC(=O)[C@@H]1CCCN1Cc1c[nH]nc1-c1ccc(-c2ccccc2)cc1`: the “bacterial growth OD600” value (polymyxin B 1 µg/mL) worked out at 0.854.
On to `COC(=O)c1ccc(CN2CCCC(Nc3cccc(F)c3)C2)cc1` (stereo unspecified), for which the “bacterial growth OD600” value (polymyxin B 0.75 µg/mL) was determined as 0.89.
In the case of `COc1ccc(CCN2CCCC(CN(C)Cc3ncc[nH]3)C2)cc1` (stereo unspecified), the “bacterial growth OD600” value (polymyxin B 0.75 µg/mL) turned out to be 0.865.
For the compound `COCCN1C(=O)CC(CC(=O)N(Cc2ccccc2)CC2CC2)(c2ccccc2OC)C1=O` (stereo unspecified), for the setting “polymyxin B 0.75 µg/mL”, the “bacterial growth OD600” value turned out to be 0.003.
Turning to `O=C(NCC1Cc2cccc(-c3ncccn3)c2O1)C1CC1` (stereo unspecified), the “bacterial growth OD600” value (polymyxin B 0.75 µg/mL) came to 0.939.
On to `CC#CCN1C(=O)NC(CCc2ccccc2)(C2CCN(Cc3cc(OC)ccc3OC)CC2)C1=O` (stereo unspecified), for which the “bacterial growth OD600” value (polymyxin B 0.75 µg/mL) was 0.775.
Take `FC(F)(F)c1cccc(Cc2noc(CN3CCC(OCc4ccccn4)CC3)n2)c1`: the “bacterial growth OD600” value (polymyxin B 1 µg/mL) worked out at 0.879.
For the compound `CCC(C)CNc1ccc(C(=O)N2CCC(CN3CCCC3=O)CC2)cn1` (stereo unspecified), the “bacterial growth OD600” value (polymyxin B 0.75 µg/mL) came out at 0.817.
Consider `COc1cccc(OC)c1CN1CCC(C(Cc2ccccc2Cl)N(C)C(=O)c2ccco2)CC1` (stereo unspecified), for which the “bacterial growth OD600” value (polymyxin B 0.75 µg/mL) amounted to 0.731.
For the compound `O=C1CC(NCc2cc(F)ccc2-n2cccn2)CN1Cc1cccc(F)c1` (stereo unspecified), the “bacterial growth OD600” value (polymyxin B 1 µg/mL) amounted to 0.896.
As for `O=C(CCc1ccccc1)NCC1CC(Cc2ccc(F)cc2)=NO1` (stereo unspecified), the “bacterial growth OD600” value (polymyxin B 0.75 µg/mL) was determined as 0.878.
As to `CCn1cc(CN2CCC(C3(C)NC(=O)N(Cc4cccc(OC)c4OC)C3=O)CC2)c(C)n1` (stereo unspecified), the “bacterial growth OD600” value (polymyxin B 0.75 µg/mL) was found to be 0.852.
On to `CC(C)(CO)CNC(=O)C1CCC(=O)N(CC2CCCCC2)C1` (stereo unspecified), for which the “bacterial growth OD600” value (polymyxin B 1 µg/mL) was found to be 0.953.
Turning to `CC1(C)CC(CCNC(=O)CCC2(Cc3ccc(F)cc3)CCC(=O)N2)(c2ccccc2)CCO1` (stereo unspecified), the “bacterial growth OD600” value (polymyxin B 0.75 µg/mL) is 0.804.
In the case of `Cc1ncsc1CCC(=O)NCc1cccnc1Oc1ccc(F)cc1F`, the “bacterial growth OD600” value (polymyxin B 0.75 µg/mL) worked out at 0.833.
As for `COc1ccc(CN2CCN(CCCn3cccn3)CC2CCO)cc1C` (stereo unspecified), the “bacterial growth OD600” value (polymyxin B 1 µg/mL) is 0.865.
Still for that read-out and setting: then `CCC(=O)C1CCCN(Cc2cnc(S(=O)(=O)CC)n2CCCc2ccccc2)C1` (stereo unspecified), with 1.16.
For `OC1(Cc2cc(-c3ccccc3)no2)CCN(CC2CCCCC2)CC1`, the “bacterial growth OD600” value (polymyxin B 1 µg/mL) was determined as 0.962.
On the same count and under the same terms, then `COc1ccccc1CN1CC(C(=O)NCCc2ccccc2Cl)CCC1=O` (stereo unspecified), with 0.905.

Source of the values: the supplement of paper PMC12889115.
